Literature values as cited in patent US20040116382A1, “Food products containing cyclodextrins having beneficial hypocholesterolemic effects and method of making and communicating the benefit of such products” (priority 2002, published 2004).

Settings: at 25° C.

solubility: 14 gm/100 mil
SMILES: OC[C@H]1O[C@@H]2O[C@H]3[C@H](O)[C@@H](O)[C@@H](O[C@H]4[C@H](O)[C@@H](O)[C@@H](O[C@H]5[C@H](O)[C@@H](O)[C@@H](O[C@H]6[C@H](O)[C@@H](O)[C@@H](O[C@H]7[C@H](O)[C@@H](O)[C@@H](O[C@H]1[C@H](O)[C@H]2O)O[C@@H]7CO)O[C@@H]6CO)O[C@@H]5CO)O[C@@H]4CO)O[C@@H]3CO [alpha-cyclodextrin]
